These are yes or no findings as the source states them, for the method shown. Some entries that bind do so weakly or less than the wild type.
Molecular target: VEGFR1 (on PAE-VEGFR1 cells) (UniProt P17948)
Experiment: binding to PAE-VEGFR1 cells

Protein sequences, listed by entry. Tags and fused reporters are not part of them. Residues count along the entry.
UniProt P17948, residues 27-1338: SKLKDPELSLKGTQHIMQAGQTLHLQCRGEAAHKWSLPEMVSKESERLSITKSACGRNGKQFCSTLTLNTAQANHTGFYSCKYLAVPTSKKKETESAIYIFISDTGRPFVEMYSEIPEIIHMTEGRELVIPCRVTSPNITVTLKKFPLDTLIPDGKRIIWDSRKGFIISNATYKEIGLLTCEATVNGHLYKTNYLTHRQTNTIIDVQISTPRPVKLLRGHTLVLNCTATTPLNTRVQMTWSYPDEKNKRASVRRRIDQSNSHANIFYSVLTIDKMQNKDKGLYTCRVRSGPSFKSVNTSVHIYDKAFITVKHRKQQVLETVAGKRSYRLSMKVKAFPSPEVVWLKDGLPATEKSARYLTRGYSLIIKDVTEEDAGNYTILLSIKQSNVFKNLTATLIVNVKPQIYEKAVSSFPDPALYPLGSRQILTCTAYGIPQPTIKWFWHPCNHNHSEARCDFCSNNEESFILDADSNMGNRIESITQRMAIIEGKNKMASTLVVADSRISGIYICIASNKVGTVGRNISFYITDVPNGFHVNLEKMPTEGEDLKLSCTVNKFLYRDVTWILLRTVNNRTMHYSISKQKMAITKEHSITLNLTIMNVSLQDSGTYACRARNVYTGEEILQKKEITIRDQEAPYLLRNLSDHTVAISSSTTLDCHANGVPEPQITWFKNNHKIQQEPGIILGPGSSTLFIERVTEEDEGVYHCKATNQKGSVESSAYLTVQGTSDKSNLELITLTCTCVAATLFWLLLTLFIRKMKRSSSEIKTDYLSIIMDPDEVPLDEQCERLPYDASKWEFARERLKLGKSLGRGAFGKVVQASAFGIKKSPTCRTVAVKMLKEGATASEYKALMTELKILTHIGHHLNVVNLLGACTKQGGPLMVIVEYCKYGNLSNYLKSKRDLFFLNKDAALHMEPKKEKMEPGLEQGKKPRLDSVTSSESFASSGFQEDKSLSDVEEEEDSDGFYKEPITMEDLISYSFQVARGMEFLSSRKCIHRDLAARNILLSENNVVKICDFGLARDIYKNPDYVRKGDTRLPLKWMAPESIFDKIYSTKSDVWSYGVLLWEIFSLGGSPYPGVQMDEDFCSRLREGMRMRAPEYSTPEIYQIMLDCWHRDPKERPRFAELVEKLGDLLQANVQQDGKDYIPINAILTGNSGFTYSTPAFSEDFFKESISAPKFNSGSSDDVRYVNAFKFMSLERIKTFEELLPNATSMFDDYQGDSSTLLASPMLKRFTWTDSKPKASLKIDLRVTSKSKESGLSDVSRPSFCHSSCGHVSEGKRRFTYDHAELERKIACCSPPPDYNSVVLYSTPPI

B1: scVEGFMUT-E (mE, SEQ ID NO.: 55) (ligand)
chain: EVVKAMDVYQRSYCHPIETLVDILQEYPDEIGYIFKPSCVPLMRCGGCCNGAGLECVPTEESNITMQIMRIKPHRGQHIGEMSFLQHNKCECRPKKDGSTSGSGKSSEGKGEVVRFMDVYQRSYCHPIETLVDIFQEYPNEIEYAFKPSCVPLMRCGGCCNNEGLECVPTEESNITMQIMRAKPHQGQHIGEMSFLQHNKCECRPKKD
notes: Chain 1: F36L, E44G, D63G, Q87R; also called scVEGFmE
**Q.** Which binding does the source give for B1 here?
**A.** binds

Source: patent US20180369334A1 (Stanford University, published 2018)
